The values below are quoted from earlier work in patent US20230138414A1, “METHODS AND COMPOSITIONS FOR PREVENTING AND TREATING MYOPIA” (The Trustees of Columbia University in the City of New York, priority 2020, published 2023).

Structures are written as SMILES. Where two headings read alike, the source gives them in different places.

One data set deals with progression of myopia. As to conditions: 1% atropine, cited from earlier work.
Data set [1] concerns progression of myopia in children. As to conditions: first 12 months after stopping the drug, cited from earlier work.

On to `CN1[C@@H]2CC[C@H]1C[C@@H](OC(=O)C(CO)c1ccccc1)C2` (stereo partly shown) [atropine], for which, in the data set on progression of myopia (after discontinuation of treatment), the “part of the 2-year treatment effect eliminated by rebound” value is given as “approximately 60%”. The “rebound increase in the myopia progression rate compared to placebo” value in the data set on progression of myopia (first 12 months after the cessation of atropine) is reported as 300%. In addition, the “rebound increase in the progression rate compared to placebo” value is reported as 170% in data set [1] (0.1% atropine) and 218% in data set [1] (0.5% atropine).
